# The other results are listed elsewhere or left out.
# Sequences of proteins named here, by UniProt entry; tags and fusion partners are left off.
# UniProt Q0JBA9, entry or part of it: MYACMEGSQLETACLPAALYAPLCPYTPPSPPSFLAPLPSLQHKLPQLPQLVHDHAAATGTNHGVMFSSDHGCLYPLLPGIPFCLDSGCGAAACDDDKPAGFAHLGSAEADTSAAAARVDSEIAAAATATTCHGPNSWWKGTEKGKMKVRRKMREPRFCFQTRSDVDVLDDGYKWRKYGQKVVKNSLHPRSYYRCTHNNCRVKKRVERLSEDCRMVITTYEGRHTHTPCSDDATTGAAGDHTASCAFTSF
# Target: OsWRKY34 (Oryza sativa, UniProt Q0JBA9 1-250)
# Assay: protein-binding microarray (RPBM); PBS, 2% BSA, 51.3 ng/ul salmon testes DNA, 50 uM zinc acetate, 200 nM TF, 25 C, 1 h; high values mean tight binding
# Conditions: protein: recombinant; tags: N-terminal polyhistidine and DsRed monomer fusion (pET32a); label: CyDye5-dUTP incorporated in the synthesized complementary strand; 3' TTTTT single-stranded linker to array surface; dsDNA, one strand shown
# In short: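 Transcription factors, each fused N-terminally to a polyhistidine tag and DsRed, were expressed in E. coli BL21-CodonPlus and purified on Ni–NTA. A custom Agilent array was made double-stranded by primer extension with Cy5-dUTP and blocked with 2% BSA. It was incubated with 200 nM protein in PBS, 2% BSA, salmon testes DNA and 50 µM zinc acetate at 25 °C for 1 h, then washed. The binding signal is per-feature fluorescence intensity (arbitrary units) read on an Axon 4000B scanner.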
row,Sequence,binding signal
1,GCGGCCATCTTCTCGCTCGATCTCCCGCTCCCGCGGAACCCGGAGTCACCTAGTGCAG,9140 fluorescence intensity (a.u.)
2,AAAATCCAGCTGCCTCGAGCTCCTTTTCCGTTTCTTTCCCCGGAGTCACCTAGTGCAG,8470 fluorescence intensity (a.u.)
3,TTTAATAAGCGACGGTCTTTGACTTTTCGACATATGTCTGCGGAGTCACCTAGTGCAG,10100 fluorescence intensity (a.u.)
4,CGGAGGCGAGTGGGTGGGTGGTGGTCCAGTGCGGTGGTGCCGGAGTCACCTAGTGCAG,9800 fluorescence intensity (a.u.)
5,ATTTCTGCTACTATTTTCGAAATATGTTATTATTTTCATTCGGAGTCACCTAGTGCAG,9110 fluorescence intensity (a.u.)
6,GTCCATGGGTCGCTTCCTGGCCGAGGCTACCGTCGTCGCACGGAGTCACCTAGTGCAG,8930 fluorescence intensity (a.u.)
7,CTACTTCATTTTACACTTGCTGCTTTAATTTATTTACCTTCGGAGTCACCTAGTGCAG,11900 fluorescence intensity (a.u.)
8,CCGCGCCGCTCTGCCGTCCCAGCCATCGCCGCCGCCCGCACGGAGTCACCTAGTGCAG,8200 fluorescence intensity (a.u.)
9,GATAGATTTGTAGTTGTACATTTAGTGTAGTTAAGTTGTACGGAGTCACCTAGTGCAG,8040 fluorescence intensity (a.u.)
10,ATTCTATACTTTTGTTTCCCTATCATTTGACGCTTTACACCGGAGTCACCTAGTGCAG,10000 fluorescence intensity (a.u.)
11,CAATCTTCTTGGTACTTCACTTCCACCACTGCTCCTTTCTCGGAGTCACCTAGTGCAG,12500 fluorescence intensity (a.u.)
12,CAACGGCGAGGATGGCTTGCATGCGGCGGTGGCGGGAGGGCGGAGTCACCTAGTGCAG,8910 fluorescence intensity (a.u.)
13,GGGTTGTGGTTGTTGTACGTTGTTGTTGACGGCGATGGTTCGGAGTCACCTAGTGCAG,12000 fluorescence intensity (a.u.)
14,ATGATATATGCTTATCCAAACACCACCAAGGGCATCATGACGGAGTCACCTAGTGCAG,8230 fluorescence intensity (a.u.)
15,TGTTCTGCTGCCTCGAGCCCCGCCCCGCCATCCTACTGCTCGGAGTCACCTAGTGCAG,8040 fluorescence intensity (a.u.)
16,GAACTTCGCCGCTGCCCTACTCGAGGTCTTCCTCTCCACCCGGAGTCACCTAGTGCAG,8210 fluorescence intensity (a.u.)
17,TCCTCCCTTTTGCGGCTTGCGAATGTCAACACACTGTTTTCGGAGTCACCTAGTGCAG,9910 fluorescence intensity (a.u.)
18,CTAATGTATGTTCAGGTGTACGCATGGATCCTAATGCGAACGGAGTCACCTAGTGCAG,8620 fluorescence intensity (a.u.)
19,TCCGTAAATCCAACATGGCACTATTACCGCCGGCTTAAATCGGAGTCACCTAGTGCAG,56000 fluorescence intensity (a.u.)
20,GGTGGTGGTGGTGGTGGTGGTGGTGTAGGAGGAGGAGGAGCGGAGTCACCTAGTGCAG,27600 fluorescence intensity (a.u.)
21,GCCCACCGTTCATGGTCATAGGCCACCTGTTGCCTTCACACGGAGTCACCTAGTGCAG,9190 fluorescence intensity (a.u.)

row,Sequence,binding signal
1,TTTGACTTTTGAGGTTTTGCCCTTCTGATCAGACCGCACTCGGAGTCACCTAGTGCAG,8070 fluorescence intensity (a.u.)
2,GGCTTTGACTTCTCACCATAGAAGAACCTTCTCATGGTCGCGGAGTCACCTAGTGCAG,8490 fluorescence intensity (a.u.)
3,CGCCGCTGCTCTCGTTGTTGTCCCGCTGCGGCGCTGTGGTCGGAGTCACCTAGTGCAG,12800 fluorescence intensity (a.u.)
4,ACTACTCCCACCTCGCCGCCCGCCGCCGCCGCCGCCGGGTCGGAGTCACCTAGTGCAG,8240 fluorescence intensity (a.u.)
5,GTACTCCTGGTCCGCATCCACCGTCCATCCGCGTACCGCACGGAGTCACCTAGTGCAG,11000 fluorescence intensity (a.u.)
6,CCTATATTTAATACTTCATGCATGTGTTCAAACGTTCGATCGGAGTCACCTAGTGCAG,8890 fluorescence intensity (a.u.)
7,CTCCTCAACAACACTCTCAGGTCAATCTCGGCCGACCCAACGGAGTCACCTAGTGCAG,8610 fluorescence intensity (a.u.)
8,TCATCTCATCTCTCTCGTTTTTATATGCACGTTTTTCAAACGGAGTCACCTAGTGCAG,9530 fluorescence intensity (a.u.)
9,CGCGCCCCGCCGCCACCATCCGCATCCACCATTCCATTCACGGAGTCACCTAGTGCAG,8880 fluorescence intensity (a.u.)
10,GGGGTGGCGGGGACGGGAAAGGAAATCTTGTAGACTGCGTCGGAGTCACCTAGTGCAG,8380 fluorescence intensity (a.u.)
11,TTCTTTCGGTTTTTTTAATCCATTTTGCAACACTCTCTGTCGGAGTCACCTAGTGCAG,12900 fluorescence intensity (a.u.)
12,ATTTGTTCGGTCTTTCTCTCATCCCTACATATGGCATTCACGGAGTCACCTAGTGCAG,8070 fluorescence intensity (a.u.)
13,TCTTCGTACTCGCCTCTCTCCGCGCCCTCCTCCGCCGCCGCGGAGTCACCTAGTGCAG,12600 fluorescence intensity (a.u.)
14,ACTTATTTTCCTTTTTTGGGGTTGCCTCTTGCAGTTCATCCGGAGTCACCTAGTGCAG,8930 fluorescence intensity (a.u.)
15,CTTTTTTTTTTCTTTGTTTCTTGTCCCCAGGCAATGACCGCGGAGTCACCTAGTGCAG,9410 fluorescence intensity (a.u.)
16,TGCAAGTTTGTTTTCACTCATCTTATTTGTTTAGGTTTGTCGGAGTCACCTAGTGCAG,12400 fluorescence intensity (a.u.)
17,GTCGATATGTTTGTAGTAATTTTTTTTGTGCTTCCTTTATCGGAGTCACCTAGTGCAG,10100 fluorescence intensity (a.u.)
18,GTTTGTCACTCCTGTCAATTGTTCATCCACTCCATTGATTCGGAGTCACCTAGTGCAG,13100 fluorescence intensity (a.u.)
19,TTGAGGGTGGGTTTCAGAGGTGTGGGAGGTCGCCTCCATGCGGAGTCACCTAGTGCAG,9420 fluorescence intensity (a.u.)
20,TCTCCAGCATGTTTCAGTTATTGCATTTGTTTTCTAAAGACGGAGTCACCTAGTGCAG,10600 fluorescence intensity (a.u.)
21,ACCGCGTCGGCCATCACGTTCCTACAAATCTTGCAGTAGACGGAGTCACCTAGTGCAG,8230 fluorescence intensity (a.u.)

# Some values from the results shown.
# binding signal with TCTCCAGCATGTTTCAGTTATTGCATTTGTTTTCTAAAGACGGAGTCACCTAGTGCAG is entered as 10600 fluorescence intensity (a.u.)
# binding signal with TTTGACTTTTGAGGTTTTGCCCTTCTGATCAGACCGCACTCGGAGTCACCTAGTGCAG is entered as 8070 fluorescence intensity (a.u.)

# — paper PMC7819943, “Rice protein-binding microarrays: a tool to detect cis-acting elements near promoter regions in rice”
